{"sequences": {"note": "Amino acid sequences for entries named in this document (tags omitted).", "UniProt P14902, whole entry": "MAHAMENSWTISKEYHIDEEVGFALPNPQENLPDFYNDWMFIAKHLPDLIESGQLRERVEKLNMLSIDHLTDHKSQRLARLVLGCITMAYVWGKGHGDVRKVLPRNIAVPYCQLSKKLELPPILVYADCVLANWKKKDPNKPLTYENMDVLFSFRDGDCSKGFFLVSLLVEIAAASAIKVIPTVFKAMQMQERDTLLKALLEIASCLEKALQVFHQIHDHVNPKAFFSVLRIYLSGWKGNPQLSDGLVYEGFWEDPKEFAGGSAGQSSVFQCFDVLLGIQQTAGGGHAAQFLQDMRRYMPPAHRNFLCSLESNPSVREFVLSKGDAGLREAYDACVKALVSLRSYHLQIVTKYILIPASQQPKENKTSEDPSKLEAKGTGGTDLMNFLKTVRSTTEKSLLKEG"}, "source": "patent US11858908B2", "about": "(priority 2021, dated 2024)", "target": "T1, IDO1 (Homo sapiens, UniProt P14902)", "T1 construct": "Primary human myoblast cells (Gibco A12555) were treated with interferon gamma; host or cells: primary human myoblast / skeletal muscle cells (also vascular smooth muscle cells), IFN-gamma stimulated", "format": "cell-based", "note": "Some of these results come from one statement about several compounds together.", "data": [{"compound": "Cc1ccc(CC(CC(=O)NCCc2ccc3c(c2)OCO3)C(=O)O)cc1", "note": "(stereo not shown) [succinamic acid analog, N-(2-benzo[1,3]dioxol-5-yl-ethyl)-2-(4-methyl-benzyl)-succinamic acid]", "values": [{"measurement": "reduction of KYN levels", "result": "more than 50%"}]}]}
